No constants are given. Whether binding was seen depends on the method and setting. Some entries that bind do so weakly or less than the wild type. Where a sequence is shown, tags or fusion partners need not be part of it.
Molecular target: mouse RANKL protein (mouse) (UniProt O35235)
Assay: ELISA, mouse RANKL coated at 10 µg/ml, anti-hFc-HRP detection

Protein sequences, listed by entry. Tags and fused reporters are not part of them. Residues count along the entry.
UniProt O35235, residues 138-316: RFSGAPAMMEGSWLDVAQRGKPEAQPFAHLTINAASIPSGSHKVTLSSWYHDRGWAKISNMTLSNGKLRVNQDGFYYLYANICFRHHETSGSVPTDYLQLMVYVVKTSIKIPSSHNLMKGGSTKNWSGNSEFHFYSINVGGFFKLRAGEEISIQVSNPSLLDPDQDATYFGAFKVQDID

B1: recombinant mouse RANK-hFc fusion protein (Fc fusion, UniProt O35305 31-214, looked up, not shown: a dimerising Fc or GST)
chain: VTPPCTQERHYEHLGRCCSRCEPGKYLSSKCTPTSDSVCLPCGPDEYLDTWNEEDKCLLHKVCDAGKALVAVDPGNHTAPRRCACTAGYHWNSDCECCRRNTECAPGFGAQHPLQLNKDTVCTPCLLGFFSDVFSSTDKCKPWTNCTLLGKLEAHQGTTESDVVCSSSMTLRRPPKEAQAYLPS
binding: binds
